# Laboratory results as given in patent US20180221393A1, “CXCR4 BINDING AGENTS FOR TREATMENT OF DISEASES” (Biokine Therapeutics Ltd., priority 2015, published 2018).
# At least one structure is not confirmed: it was looked up by name or label, or the drawing left a doubt.
# Tested on: SKNBE-CXCR4 cells
# Assay: ABT-199 on SKNBE cells over-expressing CXCR4, FACS after PI staining
# Type: cell-based, human
# Settings: SKNBE-CXCR4 vs SKNBE cells, ABT-199 0.01-10 uM, 24 hr, 1% FCS
compound,measurement,value
"CC1(C)CCC(CN2CCN(c3ccc(C(=O)NS(=O)(=O)c4ccc(NCC5CCOCC5)c([N+](=O)[O-])c4)c(Oc4cnc5[nH]ccc5c4)c3)CC2)=C(c2ccc(Cl)cc2)C1 [ABT-199, 4-(4-{[2-(4-chlorophenyl)-4,4-dimethylcyclohex-1-en-1-yl]methyl}piperazin-1-yl)-N-({3-nitro-4-[(tetrahydro-2H-pyran-4-ylmethyl)amino]phenyl}sulfony-1)-2-(1H-pyrrolo[2,3-b]pyridin-5-yloxy)benzamide]",response to ABT199 of cells over-expressing CXCR4,un-resistant
